Source: paper PMC7819943, “Rice protein-binding microarrays: a tool to detect cis-acting elements near promoter regions in rice”
This is one part of the list.

Chains of the proteins cited; added tags and fusions are not shown.
UniProt Q0JBA9, entry or part of it: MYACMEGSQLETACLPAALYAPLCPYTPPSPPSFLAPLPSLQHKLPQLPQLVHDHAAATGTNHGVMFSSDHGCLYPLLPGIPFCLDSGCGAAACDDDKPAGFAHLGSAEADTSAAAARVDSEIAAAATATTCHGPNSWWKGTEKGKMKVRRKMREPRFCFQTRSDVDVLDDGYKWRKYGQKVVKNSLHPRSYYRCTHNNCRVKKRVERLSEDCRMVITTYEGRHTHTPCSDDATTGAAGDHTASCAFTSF

molecular target: OsWRKY34 (Oryza sativa, UniProt Q0JBA9 1-250); assay: protein-binding microarray (RPBM); PBS, 2% BSA, 51.3 ng/ul salmon testes DNA, 50 uM zinc acetate, 200 nM TF, 25 C, 1 h; high values mean tight binding; details: protein: recombinant; tags: N-terminal polyhistidine and DsRed monomer fusion (pET32a); label: CyDye5-dUTP incorporated in the synthesized complementary strand; 3' TTTTT single-stranded linker to array surface; dsDNA, one strand shown
Method in brief: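 An Axon 4000B scanner gave the binding signal as per-feature fluorescence intensity in arbitrary units. This followed washing of a custom Agilent array that had been incubated for 1 h at 25 °C with 200 nM protein in PBS, 2% BSA, salmon testes DNA and 50 µM zinc acetate. The proteins were transcription factors fused at the N-terminus to polyhistidine and DsRed, expressed in E. coli BL21-CodonPlus and purified on Ni–NTA.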

Sequence	binding signal
TCAGCTTTGATACAAATCCGATCTTCTCCTTTTCGTTTTTCGGAGTCACCTAGTGCAG	11100 fluorescence intensity (a.u.)
TTCTCGGCCTCAACTCCCGTCTCCTCGCTAGTTCGCCCGCCGGAGTCACCTAGTGCAG	13300 fluorescence intensity (a.u.)
CCAAACGGCCACCTCACTCTCCCTCTCTCTATCTCTCTCTCGGAGTCACCTAGTGCAG	10100 fluorescence intensity (a.u.)
TAATCTCATCCTCATTGTTTTCTTCTCTTCTTTTTCTCTTCGGAGTCACCTAGTGCAG	10700 fluorescence intensity (a.u.)
CCAGTGTCCGGACTTGTATATTTGAGATTCTAGCGGTGTCCGGAGTCACCTAGTGCAG	8860 fluorescence intensity (a.u.)
GTAGGAGTTGAGTTTTTTTTTTTTTTTTTTTTTTTACGGACGGAGTCACCTAGTGCAG	8440 fluorescence intensity (a.u.)
TCCTTGGGCTTTTTTTCTTGTTCGGGGTTGAGAGGCAATGCGGAGTCACCTAGTGCAG	18700 fluorescence intensity (a.u.)
ATCTCTTGTGGCTTTTTTTTGTGTGTGCATGCTGATAGCTCGGAGTCACCTAGTGCAG	8930 fluorescence intensity (a.u.)
GCTGTTCCCGTTCCTTGCCTTCGGCCACATCAGCCCGTTCCGGAGTCACCTAGTGCAG	9530 fluorescence intensity (a.u.)
ATTCCCCTACCTCGCTCGTCTTCCATGTTTCCGATAGCTCCGGAGTCACCTAGTGCAG	15100 fluorescence intensity (a.u.)
GGCTATCCCCACACAATGTTGCTTTATCGTCTTATCCACGCGGAGTCACCTAGTGCAG	8410 fluorescence intensity (a.u.)
GCTTTTTCTTTTGCATTGGTTGTGCCTGTGTACAGAGGTACGGAGTCACCTAGTGCAG	8680 fluorescence intensity (a.u.)
ACCCAGGCGCTCTGGCTTGCTCGACTGCTTAGTGATCTCCCGGAGTCACCTAGTGCAG	8400 fluorescence intensity (a.u.)
CACACCTACCCGAGGAAGAGGAGGAGGTGGGGTGGCCATGCGGAGTCACCTAGTGCAG	9100 fluorescence intensity (a.u.)
GTGGCGACTGTTATCCCTAATTTTGCGGACTTGCTCTGATCGGAGTCACCTAGTGCAG	9800 fluorescence intensity (a.u.)
GTCGTTTTATCCTTTACATATAACCGATGGTAAAATAATTCGGAGTCACCTAGTGCAG	8390 fluorescence intensity (a.u.)
TCTCCCTACCTGCGCAATTAGTTTTTAAATTTATCTATATCGGAGTCACCTAGTGCAG	10300 fluorescence intensity (a.u.)
ACTAGGAGGGGTCACATGTTGGTTTTTTTAGGACGGAGAGCGGAGTCACCTAGTGCAG	8020 fluorescence intensity (a.u.)
TTACATTTTAGGACATATATTTGGGGAGCTTCTTGGCTGTCGGAGTCACCTAGTGCAG	10800 fluorescence intensity (a.u.)
GAACACCATGTCTGCCATGTCCGCGTGCATAAACACCGTCCGGAGTCACCTAGTGCAG	9470 fluorescence intensity (a.u.)
TTAACTAACTGCGTCATCGCCACCGTCGTCATGGCATCTTCGGAGTCACCTAGTGCAG	9320 fluorescence intensity (a.u.)

Sequence	binding signal
CTCACTTGACCGTGAACAGCACTCACTTGATTTGTACTTTCGGAGTCACCTAGTGCAG	10000 fluorescence intensity (a.u.)
TTGGTTAGGAGCTGTTTTGTTTGTTGGGTTGAAATCGTCACGGAGTCACCTAGTGCAG	10200 fluorescence intensity (a.u.)
ATCATATTGCTGTCGACCTGTCGTTCATCCGAGCTGCTTTCGGAGTCACCTAGTGCAG	11900 fluorescence intensity (a.u.)
GGCCCCACGTTTCATCCTCACGACCGTGTCCAACCCAGGGCGGAGTCACCTAGTGCAG	10300 fluorescence intensity (a.u.)
GGTGCGTTTTAGGTGTGTTTAGTTCGCGAAAAGAAAATTTCGGAGTCACCTAGTGCAG	11200 fluorescence intensity (a.u.)
CACATCATCTTCGATCTCGCCCTGGTTCGAGTCAATTCATCGGAGTCACCTAGTGCAG	11500 fluorescence intensity (a.u.)
CTATCTGGTTTAGGGTTTAGGGTTTATATGTATGTAAAATCGGAGTCACCTAGTGCAG	8900 fluorescence intensity (a.u.)
ATTCAATGCTTATCGGGGTTAGATCTTTCTAGCTATGATTCGGAGTCACCTAGTGCAG	11700 fluorescence intensity (a.u.)
ACTTCTTTTGGGCTTTTCTTTTGCAATAGAACGTTTTGGACGGAGTCACCTAGTGCAG	8410 fluorescence intensity (a.u.)
ATCAGTGGTATAAAAAGGGGTAGAGGGAGGGTGGCCTCCACGGAGTCACCTAGTGCAG	8900 fluorescence intensity (a.u.)
TTCCTAAATATTTACGACGTTGACTTTTTTAAAAATGTTTCGGAGTCACCTAGTGCAG	20100 fluorescence intensity (a.u.)
ATTTTTACATGTCTATCTTTTTTGTGTGTAGTACATAAATCGGAGTCACCTAGTGCAG	8270 fluorescence intensity (a.u.)
ACCTCCTGGTCCTGTTACTACCACTGCATTAATTGTGTTTCGGAGTCACCTAGTGCAG	9710 fluorescence intensity (a.u.)
AACTCGATGATGATGTCGCCACGACGCCTTGTATATATTTCGGAGTCACCTAGTGCAG	8190 fluorescence intensity (a.u.)
AACCCTTGACTGTGGATATGCATGACACTTCTATTTTACCCGGAGTCACCTAGTGCAG	8080 fluorescence intensity (a.u.)
GATATGCCTCTGTGGATGCAATTGATCTCCTTTGACTTTTCGGAGTCACCTAGTGCAG	9370 fluorescence intensity (a.u.)
TGGTTTGGTCTAGTTCTAGGAGTGTACTACATGTGCGTGCCGGAGTCACCTAGTGCAG	11200 fluorescence intensity (a.u.)
CCACGTAGGCGCCACGTCAGCCAAAACCGCTCTTAAAACCCGGAGTCACCTAGTGCAG	8110 fluorescence intensity (a.u.)
ATTGTGTACTGGATGATCATGCATTTTATGATTGTATTAACGGAGTCACCTAGTGCAG	8860 fluorescence intensity (a.u.)
AGCAAATCAAGGTTTAGTTTTCTTCCCTTTGAGGCTTTCACGGAGTCACCTAGTGCAG	8180 fluorescence intensity (a.u.)
ACCTGTTTGTTGTTGTTGTCGTCGTCGTCTTCTCCTACCTCGGAGTCACCTAGTGCAG	14000 fluorescence intensity (a.u.)

Sequence	binding signal
AAATATCTACGTTTAGTTTGTTGTCAAATTTGGTCAACATCGGAGTCACCTAGTGCAG	9160 fluorescence intensity (a.u.)
CCCTTCGGCCGTGCCCGTGCGCCGGTCGACGTCGCCGTCTCGGAGTCACCTAGTGCAG	8540 fluorescence intensity (a.u.)
CGCCCGCCTCCCCGCTCACATGCGCGCAACCACCGCCATGCGGAGTCACCTAGTGCAG	8390 fluorescence intensity (a.u.)
TTATATTATGTTTTTTCTGCCTTTTTTCTTTTTTTCCCCTCGGAGTCACCTAGTGCAG	8700 ± 342 fluorescence intensity (a.u.)
TTTGGGACGGAGGGAGTTCTTCATTTTTTTTCTCTCAATTCGGAGTCACCTAGTGCAG	10500 fluorescence intensity (a.u.)
AGCTCTGGATTGCATCCCCAATCCCCTGTGTGTATTGACTCGGAGTCACCTAGTGCAG	8260 fluorescence intensity (a.u.)
TCGATCTCCGTCCAATGCGCTCGCCGCCGCCGCCGCCATGCGGAGTCACCTAGTGCAG	8470 fluorescence intensity (a.u.)
CGCGCTCACCGTCCTCTACCAGGACGCCGTCGGCGGCCTCCGGAGTCACCTAGTGCAG	8610 fluorescence intensity (a.u.)
TTCTTGTTTGCTTTCACATGGTTTCATGCTCTCAGGCTCGCGGAGTCACCTAGTGCAG	8400 fluorescence intensity (a.u.)
CATCTTGTTGGGCCACGTCGCAGGCCGTTTCGGGGCCATCCGGAGTCACCTAGTGCAG	8910 fluorescence intensity (a.u.)
CATTGCTCATTGTTTACTCCATCACGCCCGCCACCATGCACGGAGTCACCTAGTGCAG	8180 fluorescence intensity (a.u.)
GTTTCTTTTATTTCTTTTTCTTTGGATTTCTTTCCCCGAACGGAGTCACCTAGTGCAG	9150 fluorescence intensity (a.u.)
CACAAGACTTTCGCCAAATATCACCCCATCACCAAAATACCGGAGTCACCTAGTGCAG	8840 fluorescence intensity (a.u.)
CCCCTCCACCACCGTTAACCGCCACGCCGGTCCTCTATCTCGGAGTCACCTAGTGCAG	9820 fluorescence intensity (a.u.)
GCGACGCCACCGCCGCCCCACCGCCCCGACGCCCTATCCGCGGAGTCACCTAGTGCAG	8210 fluorescence intensity (a.u.)
TATCCTTATCTCACCTCGCTGCATTCGCTCACTCACACTCCGGAGTCACCTAGTGCAG	9880 fluorescence intensity (a.u.)
CTCTTTGCCCTGAGCACGTTGCTCCCGTTCTTCATAAGGACGGAGTCACCTAGTGCAG	8550 fluorescence intensity (a.u.)
GGCACTGTAGCAAGTACTTTTTTATTTTTTTTCTTGGACACGGAGTCACCTAGTGCAG	10300 fluorescence intensity (a.u.)
CCTTCTTATTCAACTCTGGATTTGCTTATTCAACAGAAGTCGGAGTCACCTAGTGCAG	10600 fluorescence intensity (a.u.)
TCGATGCTGCTGGATATCACATTCTATTCTATTGCAATCTCGGAGTCACCTAGTGCAG	9640 fluorescence intensity (a.u.)
GTCCGCGTCACCCGTCTCTCCTCGCCGCCGCCGCTCTTTGCGGAGTCACCTAGTGCAG	9050 fluorescence intensity (a.u.)

Sequence	binding signal
TTTTTCTCACATGTTTGACCATTCGTCTTATTCAAAAAATCGGAGTCACCTAGTGCAG	8040 fluorescence intensity (a.u.)
ATTCGTCAGTCACAACAGTTTCATTCGGTCCACCACCACACGGAGTCACCTAGTGCAG	8310 fluorescence intensity (a.u.)
CCGCCATTGCCACACCCCACCCAAGCTCACCTCACCTCGCCGGAGTCACCTAGTGCAG	8420 fluorescence intensity (a.u.)
ATGGCTGCTGCATGGTTGTTTGCATGGCCGTTGCAGTGTTCGGAGTCACCTAGTGCAG	9080 fluorescence intensity (a.u.)
CAGACTCCAACCTACTAAGTGCGTTGCTAGATGCCACGTTCGGAGTCACCTAGTGCAG	8200 fluorescence intensity (a.u.)
GTAGGATCAATCTTTGTGCATGCCTTCTGGGATCAGTACTCGGAGTCACCTAGTGCAG	8060 fluorescence intensity (a.u.)
ATTTCCTTTTCTTCCGTTTACTCGTCGCGGTCGCAGGGGCCGGAGTCACCTAGTGCAG	8080 fluorescence intensity (a.u.)
AGATGTAGTGGAAGTAATTTGGTGTTATAAATGTTGCTATCGGAGTCACCTAGTGCAG	8950 fluorescence intensity (a.u.)
TTGCACCATGGCTGTCGTCTCCTCCACCGTAATCTCGCCACGGAGTCACCTAGTGCAG	9620 fluorescence intensity (a.u.)
TCGCGGTCTAACCAGAATGCCATCCTGAATGTTCATTGTTCGGAGTCACCTAGTGCAG	8330 fluorescence intensity (a.u.)
GTGCAGACGTGCACACACAGTACAGTCTCCGCTTGTTACACGGAGTCACCTAGTGCAG	8090 fluorescence intensity (a.u.)
ACCCGCAACAGTCCAGTCCAGAGAGCCCCGAACTCCTCCACGGAGTCACCTAGTGCAG	8540 fluorescence intensity (a.u.)
CAGTCTCGTTAAGCAGTACTTTCTCCGTCCCAAAATATAACGGAGTCACCTAGTGCAG	8810 fluorescence intensity (a.u.)
GCGTGCACTTGCGGTCGAGCTTGGTCCATCATTTTTTTTTCGGAGTCACCTAGTGCAG	11600 fluorescence intensity (a.u.)
CTACATGTTTTCCTTCGCGCCAATTTACTTATATCATATGCGGAGTCACCTAGTGCAG	12100 fluorescence intensity (a.u.)
ACCTCTCCCTATTTTTCTTTCTTTTTTGCCATAAGACCATCGGAGTCACCTAGTGCAG	8430 fluorescence intensity (a.u.)
GCTTATAGCCTGTTATTGTACCTGCTCTTAGGTTCTGTTCCGGAGTCACCTAGTGCAG	9240 fluorescence intensity (a.u.)
TCTTGGTTGTTGGTGGTGGCTCAAAGATTGGGCTTTGACCCGGAGTCACCTAGTGCAG	8400 fluorescence intensity (a.u.)
TAATTGTTTAGTATTTTCTCTAACTTGTGCATTTGAATGTCGGAGTCACCTAGTGCAG	8070 fluorescence intensity (a.u.)
CATATCTCATCCCATCATCGGTCATATTCTCCTCAGCTTCCGGAGTCACCTAGTGCAG	14300 fluorescence intensity (a.u.)
AGCTGAATATCTCTGTTCAAGTGTTGACTAGCTACATATACGGAGTCACCTAGTGCAG	9050 fluorescence intensity (a.u.)
